Data from the supplement of paper PMC10849652.
The list shows a part of the results.

Amino acid sequences for entries named in this document (tags omitted). A change or cut given only in a name is not applied to a line headed by its entry.
UniProt P48200: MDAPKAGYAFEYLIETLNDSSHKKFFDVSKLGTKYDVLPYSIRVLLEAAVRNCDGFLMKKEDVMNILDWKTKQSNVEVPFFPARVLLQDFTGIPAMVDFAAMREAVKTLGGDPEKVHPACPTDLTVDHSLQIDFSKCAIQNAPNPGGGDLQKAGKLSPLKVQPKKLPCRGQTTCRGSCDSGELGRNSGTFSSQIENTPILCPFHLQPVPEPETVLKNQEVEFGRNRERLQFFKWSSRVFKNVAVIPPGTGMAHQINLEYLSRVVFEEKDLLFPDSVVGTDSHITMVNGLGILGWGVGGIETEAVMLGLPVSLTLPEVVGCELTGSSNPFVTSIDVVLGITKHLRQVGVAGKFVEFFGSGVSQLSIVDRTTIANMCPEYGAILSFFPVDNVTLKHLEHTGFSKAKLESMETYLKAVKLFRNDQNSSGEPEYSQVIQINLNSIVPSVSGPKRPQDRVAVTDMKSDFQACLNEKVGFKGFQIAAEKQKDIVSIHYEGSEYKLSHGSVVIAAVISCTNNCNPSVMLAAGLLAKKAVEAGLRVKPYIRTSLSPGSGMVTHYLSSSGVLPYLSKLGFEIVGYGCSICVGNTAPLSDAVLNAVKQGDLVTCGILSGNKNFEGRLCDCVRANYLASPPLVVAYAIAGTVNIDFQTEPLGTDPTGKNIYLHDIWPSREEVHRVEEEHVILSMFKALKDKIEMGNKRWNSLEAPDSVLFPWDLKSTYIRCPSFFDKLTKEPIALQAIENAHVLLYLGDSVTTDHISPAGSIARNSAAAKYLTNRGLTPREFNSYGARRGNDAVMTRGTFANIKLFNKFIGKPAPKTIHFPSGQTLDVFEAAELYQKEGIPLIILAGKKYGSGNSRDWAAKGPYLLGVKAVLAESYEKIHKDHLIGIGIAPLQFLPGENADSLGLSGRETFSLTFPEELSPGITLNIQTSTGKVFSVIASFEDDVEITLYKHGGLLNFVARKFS
UniProt P05161, whole entry, looked up: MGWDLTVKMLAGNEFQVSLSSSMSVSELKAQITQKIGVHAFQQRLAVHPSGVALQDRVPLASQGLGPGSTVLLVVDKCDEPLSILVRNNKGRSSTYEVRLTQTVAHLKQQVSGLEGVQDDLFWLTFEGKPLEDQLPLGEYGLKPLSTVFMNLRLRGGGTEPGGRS
UniProt Q68E01, whole entry, looked up: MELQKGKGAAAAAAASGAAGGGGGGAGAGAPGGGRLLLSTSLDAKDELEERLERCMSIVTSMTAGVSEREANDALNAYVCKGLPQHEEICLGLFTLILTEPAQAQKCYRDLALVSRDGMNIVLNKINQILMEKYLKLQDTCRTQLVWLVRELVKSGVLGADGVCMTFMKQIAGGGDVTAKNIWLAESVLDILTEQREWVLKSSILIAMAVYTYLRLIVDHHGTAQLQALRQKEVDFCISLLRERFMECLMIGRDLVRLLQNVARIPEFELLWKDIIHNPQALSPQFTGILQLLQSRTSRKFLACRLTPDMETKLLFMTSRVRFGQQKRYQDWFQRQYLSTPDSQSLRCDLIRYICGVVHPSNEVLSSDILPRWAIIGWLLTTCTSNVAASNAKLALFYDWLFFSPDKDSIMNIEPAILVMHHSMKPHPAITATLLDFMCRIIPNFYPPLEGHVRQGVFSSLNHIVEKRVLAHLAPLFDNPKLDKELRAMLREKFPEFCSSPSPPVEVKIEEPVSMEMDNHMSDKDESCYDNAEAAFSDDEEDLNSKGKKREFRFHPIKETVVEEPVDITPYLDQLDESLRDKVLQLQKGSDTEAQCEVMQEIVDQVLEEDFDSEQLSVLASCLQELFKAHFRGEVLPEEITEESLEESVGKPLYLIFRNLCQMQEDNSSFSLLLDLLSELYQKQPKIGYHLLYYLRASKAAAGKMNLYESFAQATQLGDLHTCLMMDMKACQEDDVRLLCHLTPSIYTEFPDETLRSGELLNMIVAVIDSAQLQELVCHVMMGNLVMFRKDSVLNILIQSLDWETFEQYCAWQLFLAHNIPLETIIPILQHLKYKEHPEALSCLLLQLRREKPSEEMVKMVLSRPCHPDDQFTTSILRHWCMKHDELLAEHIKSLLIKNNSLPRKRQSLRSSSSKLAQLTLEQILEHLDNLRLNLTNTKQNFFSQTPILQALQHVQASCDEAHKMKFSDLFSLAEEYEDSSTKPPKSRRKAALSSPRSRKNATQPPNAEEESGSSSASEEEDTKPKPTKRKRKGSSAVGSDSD
UniProt P14316: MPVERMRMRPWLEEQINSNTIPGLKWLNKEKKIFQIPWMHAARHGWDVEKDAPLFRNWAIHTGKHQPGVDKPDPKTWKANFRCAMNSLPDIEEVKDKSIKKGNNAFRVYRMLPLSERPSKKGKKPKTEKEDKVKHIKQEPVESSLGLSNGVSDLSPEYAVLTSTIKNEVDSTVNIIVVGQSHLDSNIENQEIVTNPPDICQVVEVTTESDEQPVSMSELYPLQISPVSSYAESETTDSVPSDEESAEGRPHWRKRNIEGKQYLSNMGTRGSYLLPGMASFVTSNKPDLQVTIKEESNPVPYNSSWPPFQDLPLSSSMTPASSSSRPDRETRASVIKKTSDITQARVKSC
UniProt Q14116, whole entry, looked up: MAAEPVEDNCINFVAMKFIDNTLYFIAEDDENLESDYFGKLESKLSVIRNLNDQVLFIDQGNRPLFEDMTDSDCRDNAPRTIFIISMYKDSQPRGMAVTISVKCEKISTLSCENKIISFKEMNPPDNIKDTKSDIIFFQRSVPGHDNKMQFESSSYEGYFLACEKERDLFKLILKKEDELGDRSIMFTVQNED
UniProt Q9UI26: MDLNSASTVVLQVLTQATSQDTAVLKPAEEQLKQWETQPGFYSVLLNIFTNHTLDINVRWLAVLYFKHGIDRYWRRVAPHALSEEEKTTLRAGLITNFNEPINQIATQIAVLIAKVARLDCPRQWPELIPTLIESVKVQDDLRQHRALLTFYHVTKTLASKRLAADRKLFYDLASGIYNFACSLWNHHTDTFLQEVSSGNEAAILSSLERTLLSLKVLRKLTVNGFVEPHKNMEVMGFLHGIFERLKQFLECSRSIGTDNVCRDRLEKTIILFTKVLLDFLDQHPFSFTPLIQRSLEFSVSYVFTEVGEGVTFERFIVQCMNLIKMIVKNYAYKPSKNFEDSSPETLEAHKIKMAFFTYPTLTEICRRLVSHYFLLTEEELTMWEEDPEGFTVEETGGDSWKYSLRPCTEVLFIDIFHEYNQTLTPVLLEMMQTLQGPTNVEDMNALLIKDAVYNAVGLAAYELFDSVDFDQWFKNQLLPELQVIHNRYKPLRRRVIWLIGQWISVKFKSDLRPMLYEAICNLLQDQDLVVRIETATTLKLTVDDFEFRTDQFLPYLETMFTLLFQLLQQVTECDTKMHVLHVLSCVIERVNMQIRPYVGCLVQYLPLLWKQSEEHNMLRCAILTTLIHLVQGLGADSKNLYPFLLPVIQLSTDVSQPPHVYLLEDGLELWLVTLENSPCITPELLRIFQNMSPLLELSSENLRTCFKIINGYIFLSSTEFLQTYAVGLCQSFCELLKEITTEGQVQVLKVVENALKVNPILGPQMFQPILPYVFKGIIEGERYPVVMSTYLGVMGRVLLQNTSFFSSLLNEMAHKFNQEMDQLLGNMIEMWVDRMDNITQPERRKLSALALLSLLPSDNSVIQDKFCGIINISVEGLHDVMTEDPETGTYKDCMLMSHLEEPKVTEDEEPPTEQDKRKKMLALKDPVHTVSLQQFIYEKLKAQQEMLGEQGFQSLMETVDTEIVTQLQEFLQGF
UniProt Q13907: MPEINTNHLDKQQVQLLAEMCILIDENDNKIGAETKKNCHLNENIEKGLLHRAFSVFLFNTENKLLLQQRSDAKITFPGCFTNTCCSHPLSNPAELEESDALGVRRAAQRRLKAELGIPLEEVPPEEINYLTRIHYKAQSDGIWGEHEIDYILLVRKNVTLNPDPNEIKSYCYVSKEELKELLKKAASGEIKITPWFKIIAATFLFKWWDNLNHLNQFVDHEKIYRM
UniProt Q9NVR2, whole entry, looked up: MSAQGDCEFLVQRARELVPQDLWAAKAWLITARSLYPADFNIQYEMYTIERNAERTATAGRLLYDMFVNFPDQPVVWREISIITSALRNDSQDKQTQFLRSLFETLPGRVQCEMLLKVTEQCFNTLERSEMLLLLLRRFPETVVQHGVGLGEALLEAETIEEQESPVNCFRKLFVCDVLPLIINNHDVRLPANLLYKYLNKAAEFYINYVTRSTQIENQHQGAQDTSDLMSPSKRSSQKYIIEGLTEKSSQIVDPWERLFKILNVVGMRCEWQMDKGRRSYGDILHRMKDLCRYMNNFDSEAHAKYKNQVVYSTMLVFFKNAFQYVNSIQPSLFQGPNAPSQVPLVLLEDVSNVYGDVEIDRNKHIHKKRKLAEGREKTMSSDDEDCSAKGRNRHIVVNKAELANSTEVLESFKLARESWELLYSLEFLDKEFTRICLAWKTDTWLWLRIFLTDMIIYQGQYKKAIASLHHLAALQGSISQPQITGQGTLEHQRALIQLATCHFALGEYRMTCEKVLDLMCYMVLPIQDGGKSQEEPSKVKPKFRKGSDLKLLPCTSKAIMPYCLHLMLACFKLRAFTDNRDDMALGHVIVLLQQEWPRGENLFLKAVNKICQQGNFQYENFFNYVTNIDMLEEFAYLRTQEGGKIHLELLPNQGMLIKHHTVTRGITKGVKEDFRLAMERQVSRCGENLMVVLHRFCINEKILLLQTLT
UniProt Q96J02: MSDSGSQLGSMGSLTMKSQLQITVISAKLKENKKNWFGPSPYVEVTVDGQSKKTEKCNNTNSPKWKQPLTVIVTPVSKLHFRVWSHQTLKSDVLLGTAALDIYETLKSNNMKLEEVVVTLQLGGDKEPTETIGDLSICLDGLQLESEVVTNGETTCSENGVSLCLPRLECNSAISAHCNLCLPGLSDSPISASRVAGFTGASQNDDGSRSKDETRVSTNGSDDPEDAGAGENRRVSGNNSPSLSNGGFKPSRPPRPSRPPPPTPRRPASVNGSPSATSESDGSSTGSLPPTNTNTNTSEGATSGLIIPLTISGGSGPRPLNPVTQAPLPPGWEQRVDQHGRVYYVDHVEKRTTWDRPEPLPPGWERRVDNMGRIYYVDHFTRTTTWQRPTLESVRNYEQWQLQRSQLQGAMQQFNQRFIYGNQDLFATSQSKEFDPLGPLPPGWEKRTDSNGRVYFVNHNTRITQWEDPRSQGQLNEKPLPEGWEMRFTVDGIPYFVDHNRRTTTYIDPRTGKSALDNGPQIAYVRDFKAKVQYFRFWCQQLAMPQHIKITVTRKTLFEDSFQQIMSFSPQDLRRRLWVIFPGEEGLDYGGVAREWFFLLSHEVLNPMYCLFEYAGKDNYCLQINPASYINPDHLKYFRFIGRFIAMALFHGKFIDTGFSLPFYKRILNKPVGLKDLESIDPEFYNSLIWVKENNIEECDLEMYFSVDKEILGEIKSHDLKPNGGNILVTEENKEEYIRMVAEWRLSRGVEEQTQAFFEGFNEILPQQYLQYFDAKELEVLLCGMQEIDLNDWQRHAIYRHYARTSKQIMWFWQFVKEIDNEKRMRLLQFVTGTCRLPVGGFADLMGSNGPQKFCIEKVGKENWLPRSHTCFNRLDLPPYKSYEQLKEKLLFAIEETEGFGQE
UniProt Q9BUE6: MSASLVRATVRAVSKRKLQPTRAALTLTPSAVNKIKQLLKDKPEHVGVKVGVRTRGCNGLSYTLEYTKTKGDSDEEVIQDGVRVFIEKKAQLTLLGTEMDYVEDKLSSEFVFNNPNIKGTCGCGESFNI
UniProt P17181: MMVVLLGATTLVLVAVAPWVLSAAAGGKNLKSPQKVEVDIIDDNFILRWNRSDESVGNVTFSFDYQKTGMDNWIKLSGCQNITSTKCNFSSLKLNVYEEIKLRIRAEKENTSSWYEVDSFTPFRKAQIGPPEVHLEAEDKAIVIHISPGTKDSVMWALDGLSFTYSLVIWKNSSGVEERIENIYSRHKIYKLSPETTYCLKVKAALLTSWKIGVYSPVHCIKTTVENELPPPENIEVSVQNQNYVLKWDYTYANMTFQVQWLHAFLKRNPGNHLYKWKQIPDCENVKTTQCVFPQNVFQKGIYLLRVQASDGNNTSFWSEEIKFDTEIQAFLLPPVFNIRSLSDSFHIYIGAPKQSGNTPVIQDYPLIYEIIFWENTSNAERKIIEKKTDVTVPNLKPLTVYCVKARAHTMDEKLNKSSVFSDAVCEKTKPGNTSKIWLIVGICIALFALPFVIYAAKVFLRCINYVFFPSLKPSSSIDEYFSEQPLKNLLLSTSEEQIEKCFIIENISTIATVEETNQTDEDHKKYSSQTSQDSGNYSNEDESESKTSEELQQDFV

How the values were obtained:
Assay in all cases: log2 fold change, soluble protein after heating vs DMSO (PISA); higher = thermal stabilisation; K562 cells, 10 uM, 30 min; active = over 0.2 and 3.5 SD of the protein, either way, in both replicates (recomputed)
bafetinib = compound: Cc1ccc(NC(=O)c2ccc(CN3CC[C@H](N(C)C)C3)c(C(F)(F)F)c2)cc1Nc1nccc(-c2cncnc2)n1 [bafetinib]
Procedure, shortened: (§1)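 Values are thermal stability changes relative to control samples and are taken from duplicates. They are stated as log2 fold changes. Before quantification by TMTpro 16plex LC-MS/MS with equalised channel sums, K562 cells at 2×10^6 cells/mL were treated with 10 μM compound for 30 min, heated in aliquots for 3 min across 48°C-58°C, pooled, extracted in PBS with 0.5% NP-40 at 4°C, and centrifuged at 21,000xg for 90 min to give the soluble supernatant.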

[1] = compound: Cc1cccc(CC(=O)N2CCc3c2ccc(-c2cn(C)c4ncnc(N)c24)c3F)n1
Procedure, shortened: as §1

nilotinib = compound: Cc1cn(-c2cc(NC(=O)c3ccc(C)c(Nc4nccc(-c5cccnc5)n4)c3)cc(C(F)(F)F)c2)cn1 [nilotinib]
Procedure, shortened: as §1

[2] = compound: Cc1nc(Nc2n[nH]c3c2CN(C(=O)N[C@H](CN(C)C)c2ccccc2)C3(C)C)c2sccc2n1
Procedure, shortened: as §1

dasatinib = compound: Cc1nc(Nc2ncc(C(=O)Nc3c(C)cccc3Cl)s2)cc(N2CCN(CCO)CC2)n1 [dasatinib]
Procedure, shortened: as §1

[3] = compound: Cc1ncc(-c2ccnc(Nc3ccc(S(C)(=O)=O)cc3)n2)n1C(C)C
Procedure, shortened: as §1

[4] = compound: Cn1cc(-c2ccc3c(c2)CCN3C(=O)Cc2cccc(C(F)(F)F)c2)c2c(N)ncnc21
Procedure, shortened: as §1

[5] = compound: Cn1cc(-c2ccc3nnc(C(F)(F)c4ccc5ncccc5c4)n3n2)cn1
Procedure, shortened: as §1

tipifarnib = compound: Cn1cncc1[C@@](N)(c1ccc(Cl)cc1)c1ccc2c(c1)c(-c1cccc(Cl)c1)cc(=O)n2C [tipifarnib]
Procedure, shortened: as §1

mubritinib = compound: FC(F)(F)c1ccc(/C=C/c2nc(COc3ccc(CCCCn4ccnn4)cc3)co2)cc1 [mubritinib]
Procedure, shortened: as §1

[6] = compound: NC(=O)Nc1cc(-c2cccc(F)c2)sc1C(=O)N[C@H]1CCCNC1
Procedure, shortened: as §1

[7] = compound: NC(=O)c1cnc(N[C@@H]2CCCC[C@@H]2N)nc1Nc1cccc(-n2nccn2)c1
Procedure, shortened: as §1

[8] = compound: NC1(c2ccc(-c3nc4ccn5c(=O)[nH]nc5c4cc3-c3ccccc3)cc2)CCC1
Procedure, shortened: as §1

[9] = compound: NCC(=O)Nc1ccc(-n2nc(C(F)(F)F)cc2-c2ccc3c(ccc4ccccc43)c2)cc1
Procedure, shortened: as §1

entinostat = compound: Nc1ccccc1NC(=O)c1ccc(CNC(=O)OCc2cccnc2)cc1 [entinostat]
Procedure, shortened: as §1

vorinostat = compound: O=C(CCCCCCC(=O)Nc1ccccc1)NO [vorinostat]
Procedure, shortened: as §1

citarinostat = compound: O=C(CCCCCCNC(=O)c1cnc(N(c2ccccc2)c2ccccc2Cl)nc1)NO [citarinostat]
Procedure, shortened: as §1

silmitasertib = compound: O=C(O)c1ccc2c(c1)nc(Nc1cccc(Cl)c1)c1ccncc12 [silmitasertib]
Procedure, shortened: as §1

[10] = compound: O=C1NC(=O)C(c2cnc3ccccn23)=C1c1cn2c3c(cc(F)cc13)CN(C(=O)N1CCCCC1)CC2
Procedure, shortened: as §1

[11] = compound: c1cc(OCCN2CCCCC2)cc(-c2n[nH]c3ccc(-c4nnc[nH]4)cc23)c1
Procedure, shortened: as §1

Measured: log2 fold change

IREB2 (UniProt P48200)
inactive: bafetinib -0.068 | [1] 0.011 | nilotinib -0.035 | [2] -0.023 | dasatinib 0.064 | [3] 0 | [4] 0.083 | [5] -0.015 | tipifarnib 0.022 | mubritinib 0.102 | [6] -0.059 | [7] -0.011 | [8] -0.127 | [9] -0.031 | entinostat 0.02 | vorinostat 0.088 | citarinostat 0.018 | silmitasertib -0.029 | [10] 0.007 | [11] -0.01

ISG15 (UniProt P05161)
inactive: bafetinib 0.005 | [1] 0.041 | nilotinib -0.031 | [2] -0.109 | dasatinib -0.071 | [3] 0.013 | [4] -0.018 | [5] 0.07 | tipifarnib 0.018 | mubritinib 0.059 | [6] 0.007 | [7] -0.129 | [8] -0.161 | [9] -0.156 | entinostat 0.055 | vorinostat 0.072 | citarinostat 0.093 | silmitasertib 0.096 | [10] -0.016 | [11] 0.006

INTS3 (UniProt Q68E01)
inactive: bafetinib 0.059 | [1] 0.08 | nilotinib -0.029 | [2] -0.034 | dasatinib -0.045 | [3] -0.069 | [4] -0.026 | [5] -0.015 | tipifarnib 0.002 | mubritinib 0.006 | [6] -0.054 | [7] -0.099 | [8] -0.173 | [9] -0.07 | entinostat 0.021 | vorinostat 0.02 | citarinostat 0.096 | silmitasertib 0.123 | [10] 0.082 | [11] -0.11

IRF2 (UniProt P14316)
inactive: bafetinib -0.036 | [1] 0.127 | nilotinib 0.034 | [2] -0.035 | [3] 0.011 | [4] -0.058 | [5] 0.013 | tipifarnib 0.05 | mubritinib 0.02 | [6] 0.01 | [7] -0.036 | [8] -0.072 | [9] 0.092 | entinostat -0.084 | vorinostat 0.087 | silmitasertib 0.02

Two entries drawn at random from the list so far, as already listed:
IRF2 (UniProt P14316)
inactive: bafetinib -0.036 | [1] 0.127 | nilotinib 0.034 | [2] -0.035 | [3] 0.011 | [4] -0.058 | [5] 0.013 | tipifarnib 0.05 | mubritinib 0.02 | [6] 0.01 | [7] -0.036 | [8] -0.072 | [9] 0.092 | entinostat -0.084 | vorinostat 0.087 | silmitasertib 0.02

ISG15 (UniProt P05161)
inactive: bafetinib 0.005 | [1] 0.041 | nilotinib -0.031 | [2] -0.109 | dasatinib -0.071 | [3] 0.013 | [4] -0.018 | [5] 0.07 | tipifarnib 0.018 | mubritinib 0.059 | [6] 0.007 | [7] -0.129 | [8] -0.161 | [9] -0.156 | entinostat 0.055 | vorinostat 0.072 | citarinostat 0.093 | silmitasertib 0.096 | [10] -0.016 | [11] 0.006

Next results.

IL18 (UniProt Q14116)
inactive: bafetinib -0.045 | [1] -0.014 | nilotinib 0.017 | [2] 0.028 | dasatinib 0.006 | [3] 0.016 | [4] 0.038 | [5] -0.029 | tipifarnib -0.01 | mubritinib 0.036 | [6] 0.005 | [7] 0.012 | [8] 0.028 | [9] -0.012 | entinostat -0.017 | vorinostat 0.017 | citarinostat 0.01 | silmitasertib -0.04 | [10] -0.005 | [11] 0.002

IPO7 (UniProt O95373)
inactive: bafetinib -0.018 | [1] 0.035 | nilotinib -0.058 | [2] -0.044 | dasatinib -0.074 | [3] -0.091 | [4] -0.018 | [5] 0.008 | tipifarnib -0.126 | mubritinib 0.079 | [6] 0.024 | [7] -0.099 | [8] -0.145 | [9] -0.069 | entinostat 0.036 | vorinostat 0.055 | citarinostat 0.056 | silmitasertib 0.015 | [10] -0.004 | [11] -0.09

ITGA5 (UniProt P08648)
inactive: bafetinib 0.008 | [1] -0.026 | nilotinib 0.069 | [2] -0.002 | dasatinib 0.018 | [3] -0.007 | [4] 0.045 | [5] -0.003 | tipifarnib -0.021 | mubritinib 0.027 | [6] -0.028 | [7] 0.073 | [8] 0.033 | [9] 0.08 | entinostat -0.058 | vorinostat -0.049 | citarinostat 0.002 | silmitasertib -0.049 | [10] -0.015 | [11] -0.039

IPO11 isoform 2 (UniProt Q9UI26)
inactive: bafetinib -0.056 | [1] 0.045 | nilotinib 0.012 | [2] -0.03 | dasatinib -0.049 | [3] 0.039 | [4] -0.008 | [5] -0.029 | tipifarnib -0.132 | mubritinib 0.069 | [6] -0.004 | [7] -0.074 | [8] -0.113 | [9] -0.039 | entinostat 0.022 | vorinostat 0.027 | citarinostat 0.048 | silmitasertib 0.032 | [10] -0.027 | [11] 0.005

IDI1 isoform 2 (UniProt Q13907)
inactive: bafetinib -0.019 | [1] -0.038 | nilotinib 0.049 | [2] 0.022 | dasatinib 0.002 | [3] -0.01 | [4] 0.096 | [5] -0.012 | tipifarnib 0.018 | mubritinib 0.054 | [6] -0.062 | [7] 0.01 | [8] -0.038 | [9] 0.024 | entinostat -0.03 | vorinostat 0.008 | citarinostat -0.017 | silmitasertib 0.078 | [10] -0.066 | [11] 0.035

INTS10 (UniProt Q9NVR2)
inactive: bafetinib -0.034 | [1] 0.035 | nilotinib 0.019 | [2] -0.034 | dasatinib -0.146 | [3] -0.006 | [4] 0.079 | [5] -0.012 | tipifarnib -0.009 | mubritinib 0.087 | [6] 0.029 | [7] -0.054 | [8] -0.167 | [9] -0.063 | entinostat 0.057 | vorinostat 0.121 | citarinostat 0.097 | silmitasertib -0.035 | [10] -0.064 | [11] -0.122

ITCH (UniProt Q96J02)
inactive: bafetinib -0.072 | [1] -0.044 | nilotinib -0.07 | [2] -0.043 | dasatinib -0.093 | [3] 0.105 | [4] 0.016 | [5] 0.01 | tipifarnib -0.032 | mubritinib -0.012 | [6] -0.025 | [7] -0.126 | [8] -0.104 | [9] 0.05 | entinostat 0.039 | vorinostat 0.078 | citarinostat 0.018 | silmitasertib 0.017 | [10] -0.032 | [11] -0.183

ISCA1 isoform 2 (UniProt Q9BUE6)
inactive: bafetinib -0.075 | [1] 0.031 | nilotinib 0.031 | [2] -0.012 | dasatinib -0.059 | [3] -0.053 | [4] 0.039 | tipifarnib -0.008 | mubritinib 0.078 | [6] -0.058 | [7] 0.04 | [8] -0.115 | [9] -0.147 | entinostat 0.016 | vorinostat 0.092 | citarinostat 0.032 | silmitasertib 0.083 | [10] -0.021 | [11] 0.034

ITPA (UniProt Q9BY32)
inactive: bafetinib -0.077 | [1] -0.008 | nilotinib 0.018 | [2] 0.003 | dasatinib 0.022 | [3] 0.012 | [4] 0.052 | [5] 0.067 | tipifarnib -0.037 | mubritinib 0.036 | [6] 0.018 | [7] 0.045 | [8] 0.018 | [9] 0.042 | entinostat -0.033 | vorinostat -0.044 | citarinostat -0.006 | silmitasertib -0.06 | [10] -0.055 | [11] -0.009

IFNAR1 (UniProt P17181)
inactive: bafetinib 0.074 | [1] -0.013 | nilotinib 0.038 | [2] -0.016 | dasatinib -0.278 | [3] 0.147 | [4] -0.056 | [5] 0.109 | tipifarnib 0.008 | mubritinib 0.011 | [6] -0.028 | [8] -0.014 | [9] 0.097 | entinostat -0.02 | vorinostat 0.026 | silmitasertib 0.103 | [10] -0.132

INTS8 (UniProt Q75QN2)
inactive: bafetinib 0.274 | [1] 0.114 | nilotinib -0.075 | [2] -0.109 | dasatinib -0.155 | [3] 0.048 | [4] -0.022 | [5] 0.038 | tipifarnib -0.078 | [6] 0.116 | [7] -0.035 | [9] -0.081 | entinostat -0.146 | vorinostat 0.245 | citarinostat 0.015 | [11] -0.003

IRGQ (UniProt Q8WZA9)
inactive: bafetinib -0.017 | [1] 0.035 | nilotinib -0.042 | [2] -0.031 | dasatinib -0.074 | [3] 0.015 | [4] 0.024 | [5] 0.049 | tipifarnib -0.034 | mubritinib 0.027 | [6] 0.019 | [7] -0.004 | [8] -0.096 | [9] -0.04 | entinostat 0.076 | vorinostat 0 | citarinostat 0.028 | silmitasertib 0.043 | [10] -0.007 | [11] -0.006
